Laboratory results taken from the supplement of paper PMC8728848.
The other results are listed elsewhere or left out.

Columns and labels:
Test in all cases: glycan array binding signal (z-score within array); higher = stronger binding
Settings in all cases: glycan notation: IUPAC condensed, linker removed; mutation: D224N
[1] = molecular target: Neu5Ac(a2-6)Gal(b1-4)GlcNAc(b1-3)[Neu5Ac(a2-6)Gal(b1-4)GlcNAc(b1-6)]GalNAc
In short: (§1)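 Glycan array data were curated from 3228 arrays in the Consortium for Functional Glycomics database and kept only where the protein sequence was available. Glycan names were converted to IUPAC-condensed notation, and columns mapping to the same glycan were averaged. The binding signal is a within-array Z-score, averaged across arrays of the same protein sequence at different concentrations or buffers and across linkers. Negative Z-scores can be read as non-binding.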

[2] = molecular target: Neu5Ac(a2-6)Gal(b1-4)GlcNAc(b1-6)GalNAc
In short: as §1

[3] = molecular target: Neu5Ac(a2-6)Gal(b1-4)GlcNAc(b1-6)[Gal(b1-3)GlcNAc(b1-3)]Gal(b1-4)Glc
In short: as §1

[4] = molecular target: Neu5Ac(a2-6)Gal(b1-4)GlcNAc(b1-6)[Gal(b1-3)]GalNAc
In short: as §1

[5] = molecular target: Neu5Ac(a2-6)Gal(b1-4)GlcNAc6S
In short: as §1

Neu5Ac(a2-6)GalNAc = molecular target: Neu5Ac(a2-6)GalNAc
In short: as §1

[6] = molecular target: Neu5Ac(a2-6)GalNAc(b1-4)GlcNAc
In short: as §1

[7] = molecular target: Neu5Ac(a2-6)GalNAc(b1-4)GlcNAc6S
In short: as §1

[8] = molecular target: Neu5Ac(a2-6)GlcNAc(b1-4)GlcNAc
In short: as §1

[9] = molecular target: Neu5Ac(a2-6)GlcNAc(b1-4)GlcNAc(b1-4)GlcNAc
In short: as §1

Neu5Ac(a2-8)Neu5Ac = molecular target: Neu5Ac(a2-8)Neu5Ac
In short: as §1

[10] = molecular target: Neu5Ac(a2-8)Neu5Ac(a2-3)Gal(b1-3)GalNAc(b1-4)[Neu5Ac(a2-3)]Gal(b1-4)Glc
In short: as §1

[11] = molecular target: Neu5Ac(a2-8)Neu5Ac(a2-3)Gal(b1-3)GalNAc(b1-4)[Neu5Ac(a2-8)Neu5Ac(a2-3)]Gal(b1-4)Glc
In short: as §1

[12] = molecular target: Neu5Ac(a2-8)Neu5Ac(a2-3)Gal(b1-4)Glc
In short: as §1

[13] = molecular target: Neu5Ac(a2-8)Neu5Ac(a2-3)Gal(b1-4)GlcNAc
In short: as §1

[14] = molecular target: Neu5Ac(a2-8)Neu5Ac(a2-3)[Gal(b1-3)GalNAc(b1-4)]Gal(b1-4)Glc
In short: as §1

[15] = molecular target: Neu5Ac(a2-8)Neu5Ac(a2-3)[GalNAc(b1-4)]Gal(b1-4)Glc
In short: as §1

[16] = molecular target: Neu5Ac(a2-8)Neu5Ac(a2-8)Neu5Ac
In short: as §1

[17] = molecular target: Neu5Ac(a2-8)Neu5Ac(a2-8)Neu5Ac(a2-3)Gal(b1-4)Glc
In short: as §1

[18] = molecular target: Neu5Ac(a2-8)Neu5Ac(a2-8)Neu5Ac(a2-3)[Gal(b1-3)GalNAc(b1-4)]Gal(b1-4)Glc
In short: as §1

[19] = molecular target: Neu5Ac(a2-8)Neu5Ac(a2-8)Neu5Ac(a2-3)[GalNAc(b1-4)]Gal(b1-4)Glc
In short: as §1

[20] = molecular target: Neu5Ac(a2-8)Neu5Ac(a2-8)Neu5Ac(a2-8)Neu5Ac(a2-3)[GalNAc(b1-4)]Gal(b1-4)Glc
In short: as §1

[21] = molecular target: Neu5Ac(a2-8)Neu5Gc(a2-3)Gal(b1-4)GlcNAc
In short: as §1

[22] = molecular target: Neu5Ac(b2-6)Gal(b1-4)GlcNAc
In short: as §1

Neu5Ac(b2-6)GalNAc = molecular target: Neu5Ac(b2-6)GalNAc
In short: as §1

[23] = molecular target: Neu5Ac9Ac(a2-3)Gal(b1-3)GlcNAc
In short: as §1

[24] = molecular target: Neu5Ac9Ac(a2-3)Gal(b1-4)GlcNAc
In short: as §1

[25] = molecular target: Neu5Ac9Ac(a2-6)Gal(b1-4)GlcNAc
In short: as §1

[26] = molecular target: Neu5Gc(a2-3)Gal(b1-3)GlcNAc
In short: as §1

[27] = molecular target: Neu5Gc(a2-3)Gal(b1-3)[Fuc(a1-4)]GlcNAc
In short: as §1

Neu5Gc(a2-3)Gal(b1-4)Glc = molecular target: Neu5Gc(a2-3)Gal(b1-4)Glc
In short: as §1

[28] = molecular target: Neu5Gc(a2-3)Gal(b1-4)GlcNAc
In short: as §1

[29] = molecular target: Neu5Gc(a2-3)Gal(b1-4)GlcNAc(b1-3)Gal(b1-4)GlcNAc(b1-2)Man(a1-3)[Neu5Gc(a2-3)Gal(b1-4)GlcNAc(b1-3)Gal(b1-4)GlcNAc(b1-2)Man(a1-6)]Man(b1-4)GlcNAc(b1-4)GlcNAc
In short: as §1

[30] = molecular target: Neu5Gc(a2-3)Gal(b1-4)[Fuc(a1-3)]GlcNAc
In short: as §1

[31] = molecular target: Neu5Gc(a2-6)Gal(b1-4)GlcNAc
In short: as §1

Neu5Gc(a2-6)GalNAc = molecular target: Neu5Gc(a2-6)GalNAc
In short: as §1

[32] = molecular target: Neu5Gc(a2-8)Neu5Ac(a2-3)Gal(b1-4)GlcNAc
In short: as §1

[33] = molecular target: Neu5Gc(a2-8)Neu5Gc(a2-3)Gal(b1-4)GlcNAc
In short: as §1

B1: a L Fucosidase (Thermotoga maritima) (protein)
chain: MASMKPRYKPDWESLREHTVPKWFDKAKFGIFIHWGIYSVPGWATPTGELGKVPMDAWFFQNPYAEWYENSLRIKESPTWEYHVKTYGENFEYEKFADLFTAEKWDPQEWADLFKKAGAKYVIPTTKHHDGFCLWGTKYTDFNSVKRGPKRDLVGDLAKAVREAGLRFGVYYSGGLDWRFTTEPIRYPEDLSYIRPNTYEYADYAYKQVMELVDLYLPDVLWNNMGWPEKGKEDLKYLFAYYYNKHPEGSVNDRWGVPHWDFKTAEYHVNYPGDLPGYKWEFTRGIGLSFGYNRNEGPEHMLSVEQLVYTLVDVVSKGGNLLLNVGPKGDGTIPDLQKERLLGLGEWLRKYGDAIYGTSVWERCCAKTEDGTEIRFTRKCNRIFVIFLGIPTGEKIVIEDLNLSAGTVRHFLTGERLSFKNVGKNLEITVPKKLLETDSITLVLEAVEE
B1 was tested. Which “glycan array binding signal (z-score)” value [1] did it give?
The value was 0.112.

What about the “glycan array binding signal (z-score)” value [2] of the same binder?
The value was 0.167.

What about the “glycan array binding signal (z-score)” value [3] of the same binder?
Its value is -0.838.

What about the “glycan array binding signal (z-score)” value [4] of the same binder?
The value was 1.05.

And the “glycan array binding signal (z-score)” value [5]?
The value was -0.69.

What about the “glycan array binding signal (z-score)” value (Neu5Ac(a2-6)GalNAc) of the same binder?
Its value is -0.767.

And the “glycan array binding signal (z-score)” value [6]?
The value was -1.05.

And the “glycan array binding signal (z-score)” value [7]?
The value was -0.271.

What about the “glycan array binding signal (z-score)” value [8] of the same binder?
Its value is -0.008.

And the “glycan array binding signal (z-score)” value [9]?
The value was -0.648.

And the “glycan array binding signal (z-score)” value (Neu5Ac(a2-8)Neu5Ac)?
Its value is -0.225.

And the “glycan array binding signal (z-score)” value [10]?
Its value is 1.06.

And the “glycan array binding signal (z-score)” value [11]?
Its value is 0.471.

What about the “glycan array binding signal (z-score)” value [12] of the same binder?
Its value is -0.893.

What about the “glycan array binding signal (z-score)” value [13] of the same binder?
Its value is 0.131.

And the “glycan array binding signal (z-score)” value [14]?
Its value is -0.705.

What about the “glycan array binding signal (z-score)” value [15] of the same binder?
Its value is 0.295.

What about the “glycan array binding signal (z-score)” value [16] of the same binder?
Its value is -0.45.

And the “glycan array binding signal (z-score)” value [17]?
The value was 0.654.

What about the “glycan array binding signal (z-score)” value [18] of the same binder?
Its value is -0.502.

What about the “glycan array binding signal (z-score)” value [19] of the same binder?
The value was 0.362.

What about the “glycan array binding signal (z-score)” value [20] of the same binder?
Its value is -0.058.

What about the “glycan array binding signal (z-score)” value [21] of the same binder?
The value was 0.814.

What about the “glycan array binding signal (z-score)” value [22] of the same binder?
The value was -0.799.

What about the “glycan array binding signal (z-score)” value (Neu5Ac(b2-6)GalNAc) of the same binder?
The value was 0.396.

And the “glycan array binding signal (z-score)” value [23]?
Its value is -0.255.

And the “glycan array binding signal (z-score)” value [24]?
The value was -0.166.

What about the “glycan array binding signal (z-score)” value [25] of the same binder?
Its value is -0.177.

And the “glycan array binding signal (z-score)” value [26]?
Its value is -1.22.

And the “glycan array binding signal (z-score)” value [27]?
The value was 0.083.

What about the “glycan array binding signal (z-score)” value (Neu5Gc(a2-3)Gal(b1-4)Glc) of the same binder?
The value was -0.385.

And the “glycan array binding signal (z-score)” value [28]?
The value was 0.097.

And the “glycan array binding signal (z-score)” value [29]?
The value was 1.05.

And the “glycan array binding signal (z-score)” value [30]?
The value was -0.05.

What about the “glycan array binding signal (z-score)” value [31] of the same binder?
The value was -0.094.

What about the “glycan array binding signal (z-score)” value (Neu5Gc(a2-6)GalNAc) of the same binder?
The value was 0.295.

And the “glycan array binding signal (z-score)” value [32]?
Its value is -0.329.

What about the “glycan array binding signal (z-score)” value [33] of the same binder?
Its value is -0.573.
